PubChem BioAssay AID1259254 – NCATS, 2017

- Test: 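Gene knock-downs that lead to re-replication, shown by excess G2 DNA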 (primary screen)
- Cell system: human HCT116 colorectal cancer cells
- Knock-down reagent: single siRNA against human genes
- Time to read-out: 3 days
- Measured: 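Imaged Hoechst DNA stain sorts each cell into a cycle phase by DNA amount; per plate, G2 fraction set to 0% for non-targeting and 100% for GMNN siRNA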
- Scale: G2 robust z-score and G2 cells, % of GMNN control: higher = more G2 cells, more excess DNA replication
- Call rule: 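Active siRNAs have a G2 robust z of 5 or more median absolute deviations over the median, which in these data means about 38% or higher of GMNN control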
This is an unselected part of about 59,000 reagents. About 1,550 of them (2.6%) count as active. 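G2 share is only a proxy for re-replication; each gene was hit by three separate siRNAs, and active genes were retested.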 Entries without a mark were called inactive. The numbers tell different reagents against one gene apart. Not all columns of the deposit are shown. Not stated in the record: the amount of reagent.

Target gene,reagent,G2 robust z-score,"G2 cells, % of GMNN control"
LIG1,1,-0.0571,2.57
LIG1,2,-0.847,-2.99
LIG1,3,-0.84,-2.94
CDIPT,1,-0.959,-3.78
CDIPT,2,-1.11,-4.87
CDIPT,3,-1.3,-6.17
NPIPB2,1,-0.538,-0.821
NPIPB2,2,-0.674,-1.77
NPIPB2,3,1.6,14.2
RPL23P7,1,2.85,23.1
RPL23P7,2,1.12,10.8
RPL23P7,3,-0.0585,2.56
PIEZO1,1,2.01,17.1
PIEZO1,2,3.33,26.4
PIEZO1,3,0.463,6.22
PRAMEF5,1,0.471,6.28
PRAMEF5,2,1.77,15.4
PRAMEF5,3,0.32,5.22
NACAD,1,-1.31,-6.25
NACAD,2,0.924,9.47
NACAD,3,0.311,5.16
DDI2,1,0.684,7.78
DDI2,2,-0.415,0.0478
DDI2,3,-0.189,1.64
DDI2,4,-1.05,-4.41
DDI2,5,0.86,9.01
DDI2,6,3.98,31
PCYOX1L,1,-1.13,-5.02
PCYOX1L,2,3.81,29.8
PCYOX1L,3,0.429,5.99
NRDE2,1,-0.914,-3.46
NRDE2,2,-0.0418,2.67
NRDE2,3,-0.903,-3.39
ZRSR2,1,-0.532,-0.775
ZRSR2,2,-0.594,-1.21
ZRSR2,3,-0.648,-1.59
OR2D3,1,-0.782,-2.54
OR2D3,2,-0.137,2.01
OR2D3,3,-0.223,1.4

The list goes on (2 carried over from the part before).
Target gene,reagent,G2 robust z-score,"G2 cells, % of GMNN control"
OR2D3,2,-0.137,2.01
OR2D3,3,-0.223,1.4
ITGA11,1,0.46,6.2
ITGA11,2,-0.675,-1.78
ITGA11,3,-0.604,-1.28
MLKL,1,0.114,3.77
MLKL,2,0.819,8.73
MLKL,3,-1.45,-7.23
RNF24,1,-0.781,-2.53
RNF24,2,0.814,8.7
RNF24,3,0.5,6.49
MTFMT,1,-1.06,-4.49
MTFMT,2,1.84,15.9
MTFMT,3,-0.589,-1.18
PLA2G10,1,1.01,10.1
PLA2G10,2,0.381,5.65
PLA2G10,3,-0.623,-1.42
MAGEA6,1,6.38 (active),47.8
MAGEA6,2,-0.795,-2.62
MAGEA6,3,-0.309,0.795
SMG8,1,-0.536,-0.806
SMG8,2,-0.251,1.2
SMG8,3,1.06,10.4
FUT6,1,-0.296,0.884
FUT6,2,1.91,16.4
FUT6,3,-1.21,-5.55
EXOSC10,1,0.0331,3.2
EXOSC10,2,-0.459,-0.263
EXOSC10,3,0.751,8.25
OR10J3,1,1.38,12.6
OR10J3,2,-1.07,-4.58
OR10J3,3,1.83,15.9
